# Data published in article PMC6143588, “A variant NuRD complex containing PWWP2A/B excludes MBD2/3 to regulate transcription at active genes” (Nature Communications, 2018).
# Amino acid sequences for entries named in this document (tags omitted).
# UniProt Q9UBB5: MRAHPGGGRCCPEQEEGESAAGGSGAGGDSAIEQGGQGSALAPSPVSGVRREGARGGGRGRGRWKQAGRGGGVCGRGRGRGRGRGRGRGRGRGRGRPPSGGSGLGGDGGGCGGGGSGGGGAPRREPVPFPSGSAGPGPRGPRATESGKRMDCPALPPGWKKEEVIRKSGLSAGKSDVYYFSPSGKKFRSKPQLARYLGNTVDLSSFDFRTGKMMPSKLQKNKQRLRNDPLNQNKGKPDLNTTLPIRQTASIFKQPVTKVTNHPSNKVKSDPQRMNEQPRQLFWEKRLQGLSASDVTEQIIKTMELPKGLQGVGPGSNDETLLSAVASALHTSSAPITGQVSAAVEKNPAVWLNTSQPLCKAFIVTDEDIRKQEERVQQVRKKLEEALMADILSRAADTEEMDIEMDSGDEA
# UniProt Q92769: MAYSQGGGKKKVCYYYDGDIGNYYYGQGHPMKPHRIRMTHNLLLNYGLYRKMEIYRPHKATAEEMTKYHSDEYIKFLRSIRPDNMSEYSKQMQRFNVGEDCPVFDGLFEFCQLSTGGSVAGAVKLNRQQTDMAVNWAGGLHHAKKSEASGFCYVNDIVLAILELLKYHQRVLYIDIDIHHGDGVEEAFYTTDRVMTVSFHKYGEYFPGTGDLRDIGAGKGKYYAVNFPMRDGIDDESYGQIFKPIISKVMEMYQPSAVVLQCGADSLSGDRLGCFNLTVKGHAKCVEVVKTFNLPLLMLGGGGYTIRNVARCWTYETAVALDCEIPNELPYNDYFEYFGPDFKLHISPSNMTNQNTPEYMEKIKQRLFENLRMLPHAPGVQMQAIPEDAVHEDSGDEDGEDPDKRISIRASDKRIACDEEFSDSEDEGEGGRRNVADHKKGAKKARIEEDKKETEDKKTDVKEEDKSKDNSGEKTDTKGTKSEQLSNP
# UniProt Q8WXI9: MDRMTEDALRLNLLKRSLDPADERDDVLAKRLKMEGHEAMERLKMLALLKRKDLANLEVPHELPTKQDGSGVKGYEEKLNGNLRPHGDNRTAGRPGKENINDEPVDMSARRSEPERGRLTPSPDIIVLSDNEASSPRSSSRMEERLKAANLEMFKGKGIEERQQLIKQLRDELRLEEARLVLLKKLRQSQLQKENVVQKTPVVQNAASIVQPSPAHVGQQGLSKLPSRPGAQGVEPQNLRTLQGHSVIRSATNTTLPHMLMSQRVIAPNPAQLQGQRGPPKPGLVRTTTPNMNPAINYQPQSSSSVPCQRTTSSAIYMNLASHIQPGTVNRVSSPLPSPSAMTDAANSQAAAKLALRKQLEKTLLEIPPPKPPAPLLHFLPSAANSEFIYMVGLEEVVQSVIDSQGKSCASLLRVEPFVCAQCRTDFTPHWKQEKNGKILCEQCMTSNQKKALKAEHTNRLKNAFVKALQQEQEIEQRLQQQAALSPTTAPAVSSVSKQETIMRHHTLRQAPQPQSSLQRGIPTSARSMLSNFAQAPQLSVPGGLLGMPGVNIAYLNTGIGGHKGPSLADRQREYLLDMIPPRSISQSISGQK
# UniProt Q14839: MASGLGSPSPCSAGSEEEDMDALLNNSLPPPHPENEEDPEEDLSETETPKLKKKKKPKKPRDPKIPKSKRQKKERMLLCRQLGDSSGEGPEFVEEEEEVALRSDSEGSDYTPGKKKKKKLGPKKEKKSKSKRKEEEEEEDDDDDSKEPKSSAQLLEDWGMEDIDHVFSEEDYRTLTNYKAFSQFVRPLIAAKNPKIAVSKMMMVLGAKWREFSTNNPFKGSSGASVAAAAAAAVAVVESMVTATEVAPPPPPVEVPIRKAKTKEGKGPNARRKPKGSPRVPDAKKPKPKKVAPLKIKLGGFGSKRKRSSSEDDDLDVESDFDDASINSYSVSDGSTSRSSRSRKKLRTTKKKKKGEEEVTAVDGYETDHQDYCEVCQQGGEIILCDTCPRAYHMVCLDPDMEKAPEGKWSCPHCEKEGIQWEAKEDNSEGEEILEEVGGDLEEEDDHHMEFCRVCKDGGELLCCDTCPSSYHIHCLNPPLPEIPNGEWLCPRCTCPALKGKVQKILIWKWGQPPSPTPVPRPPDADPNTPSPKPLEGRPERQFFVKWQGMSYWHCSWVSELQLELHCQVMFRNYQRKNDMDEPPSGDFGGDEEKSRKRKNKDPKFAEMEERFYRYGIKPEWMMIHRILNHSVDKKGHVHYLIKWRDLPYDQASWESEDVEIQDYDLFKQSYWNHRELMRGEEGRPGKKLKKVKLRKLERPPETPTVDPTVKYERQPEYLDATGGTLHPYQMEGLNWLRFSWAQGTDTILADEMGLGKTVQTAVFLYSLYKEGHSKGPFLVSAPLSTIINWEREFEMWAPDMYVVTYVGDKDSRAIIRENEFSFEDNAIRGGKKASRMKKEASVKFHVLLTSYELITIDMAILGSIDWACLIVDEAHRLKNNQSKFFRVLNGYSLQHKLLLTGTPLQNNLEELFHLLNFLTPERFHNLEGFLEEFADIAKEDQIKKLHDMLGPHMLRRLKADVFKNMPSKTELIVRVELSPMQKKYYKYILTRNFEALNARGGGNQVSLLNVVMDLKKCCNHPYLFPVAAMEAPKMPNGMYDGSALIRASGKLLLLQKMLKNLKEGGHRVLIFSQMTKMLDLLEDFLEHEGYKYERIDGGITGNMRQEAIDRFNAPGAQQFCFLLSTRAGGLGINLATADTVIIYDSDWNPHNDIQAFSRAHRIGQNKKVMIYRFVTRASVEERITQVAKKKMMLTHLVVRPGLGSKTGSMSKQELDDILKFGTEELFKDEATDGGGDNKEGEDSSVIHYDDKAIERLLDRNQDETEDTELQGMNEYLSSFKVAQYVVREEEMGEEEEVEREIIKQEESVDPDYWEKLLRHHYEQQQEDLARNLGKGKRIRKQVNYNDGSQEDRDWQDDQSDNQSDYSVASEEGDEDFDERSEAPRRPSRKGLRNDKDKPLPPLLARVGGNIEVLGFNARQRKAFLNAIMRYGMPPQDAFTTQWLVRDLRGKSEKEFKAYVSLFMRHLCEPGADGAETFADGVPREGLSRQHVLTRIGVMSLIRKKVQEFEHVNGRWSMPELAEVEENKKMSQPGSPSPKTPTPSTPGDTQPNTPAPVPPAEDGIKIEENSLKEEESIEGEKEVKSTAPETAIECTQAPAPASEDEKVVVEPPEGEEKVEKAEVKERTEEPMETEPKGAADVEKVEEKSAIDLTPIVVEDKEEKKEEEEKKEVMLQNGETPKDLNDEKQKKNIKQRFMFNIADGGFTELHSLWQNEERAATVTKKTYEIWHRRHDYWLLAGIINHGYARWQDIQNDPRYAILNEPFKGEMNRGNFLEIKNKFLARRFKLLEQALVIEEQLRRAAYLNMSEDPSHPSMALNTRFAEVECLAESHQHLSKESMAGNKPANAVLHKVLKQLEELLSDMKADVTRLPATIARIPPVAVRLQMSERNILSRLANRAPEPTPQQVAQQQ
# UniProt Q8CHY6: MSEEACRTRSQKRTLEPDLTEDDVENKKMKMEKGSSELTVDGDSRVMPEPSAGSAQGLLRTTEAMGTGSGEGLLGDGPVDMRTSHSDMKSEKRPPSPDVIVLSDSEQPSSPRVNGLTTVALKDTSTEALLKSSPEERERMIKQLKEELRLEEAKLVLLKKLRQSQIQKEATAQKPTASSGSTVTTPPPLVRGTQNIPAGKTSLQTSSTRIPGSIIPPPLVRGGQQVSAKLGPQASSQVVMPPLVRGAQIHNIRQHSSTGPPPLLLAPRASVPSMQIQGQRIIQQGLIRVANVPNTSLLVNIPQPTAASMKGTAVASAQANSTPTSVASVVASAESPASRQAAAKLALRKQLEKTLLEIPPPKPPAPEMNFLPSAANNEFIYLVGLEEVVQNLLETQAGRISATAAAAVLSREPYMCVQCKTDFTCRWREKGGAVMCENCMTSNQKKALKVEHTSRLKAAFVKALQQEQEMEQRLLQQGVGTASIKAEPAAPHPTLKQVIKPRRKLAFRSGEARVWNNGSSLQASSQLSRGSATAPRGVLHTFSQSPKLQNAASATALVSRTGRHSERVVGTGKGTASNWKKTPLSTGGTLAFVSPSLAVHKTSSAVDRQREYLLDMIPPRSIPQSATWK
# UniProt P70288: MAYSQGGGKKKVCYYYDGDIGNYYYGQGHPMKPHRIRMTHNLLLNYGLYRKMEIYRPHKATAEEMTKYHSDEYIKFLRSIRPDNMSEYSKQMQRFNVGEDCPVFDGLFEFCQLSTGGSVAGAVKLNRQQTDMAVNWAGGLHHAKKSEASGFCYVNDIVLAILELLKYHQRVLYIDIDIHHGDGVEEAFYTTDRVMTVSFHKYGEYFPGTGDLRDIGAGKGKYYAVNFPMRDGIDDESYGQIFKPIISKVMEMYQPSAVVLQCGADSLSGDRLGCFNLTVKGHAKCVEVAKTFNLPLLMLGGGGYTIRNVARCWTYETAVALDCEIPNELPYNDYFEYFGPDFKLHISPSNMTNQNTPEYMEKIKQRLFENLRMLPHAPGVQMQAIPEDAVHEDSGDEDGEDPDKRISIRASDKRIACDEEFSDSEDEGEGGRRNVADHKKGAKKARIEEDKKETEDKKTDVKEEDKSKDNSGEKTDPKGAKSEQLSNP
# UniProt Q9Z2E1: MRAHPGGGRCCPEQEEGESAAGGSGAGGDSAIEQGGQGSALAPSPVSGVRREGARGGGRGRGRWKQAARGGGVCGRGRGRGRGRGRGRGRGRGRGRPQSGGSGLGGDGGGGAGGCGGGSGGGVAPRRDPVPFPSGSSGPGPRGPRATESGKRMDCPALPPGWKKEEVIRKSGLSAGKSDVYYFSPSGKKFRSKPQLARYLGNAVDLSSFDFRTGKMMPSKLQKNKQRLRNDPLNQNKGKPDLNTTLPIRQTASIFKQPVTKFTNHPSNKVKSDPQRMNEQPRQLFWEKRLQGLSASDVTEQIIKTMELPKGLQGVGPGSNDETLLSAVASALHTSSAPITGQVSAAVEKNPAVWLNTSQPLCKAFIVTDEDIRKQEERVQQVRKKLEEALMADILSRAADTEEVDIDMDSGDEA
# UniProt Q8VHR5: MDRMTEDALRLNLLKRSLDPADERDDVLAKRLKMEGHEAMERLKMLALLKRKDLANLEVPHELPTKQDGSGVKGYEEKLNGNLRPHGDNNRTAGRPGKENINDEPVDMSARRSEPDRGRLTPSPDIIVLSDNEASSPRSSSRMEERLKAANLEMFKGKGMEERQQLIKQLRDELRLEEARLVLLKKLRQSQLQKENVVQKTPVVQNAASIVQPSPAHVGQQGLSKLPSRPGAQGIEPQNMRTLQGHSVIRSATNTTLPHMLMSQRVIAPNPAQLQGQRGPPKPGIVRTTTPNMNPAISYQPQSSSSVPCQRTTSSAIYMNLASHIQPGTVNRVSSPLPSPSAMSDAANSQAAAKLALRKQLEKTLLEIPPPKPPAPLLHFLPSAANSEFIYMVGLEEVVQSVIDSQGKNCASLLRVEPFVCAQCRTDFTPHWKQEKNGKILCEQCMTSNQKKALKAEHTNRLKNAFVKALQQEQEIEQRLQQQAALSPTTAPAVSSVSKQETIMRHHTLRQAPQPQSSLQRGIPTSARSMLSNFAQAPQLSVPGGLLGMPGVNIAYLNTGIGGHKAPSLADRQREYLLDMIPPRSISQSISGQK
# UniProt Q924K8: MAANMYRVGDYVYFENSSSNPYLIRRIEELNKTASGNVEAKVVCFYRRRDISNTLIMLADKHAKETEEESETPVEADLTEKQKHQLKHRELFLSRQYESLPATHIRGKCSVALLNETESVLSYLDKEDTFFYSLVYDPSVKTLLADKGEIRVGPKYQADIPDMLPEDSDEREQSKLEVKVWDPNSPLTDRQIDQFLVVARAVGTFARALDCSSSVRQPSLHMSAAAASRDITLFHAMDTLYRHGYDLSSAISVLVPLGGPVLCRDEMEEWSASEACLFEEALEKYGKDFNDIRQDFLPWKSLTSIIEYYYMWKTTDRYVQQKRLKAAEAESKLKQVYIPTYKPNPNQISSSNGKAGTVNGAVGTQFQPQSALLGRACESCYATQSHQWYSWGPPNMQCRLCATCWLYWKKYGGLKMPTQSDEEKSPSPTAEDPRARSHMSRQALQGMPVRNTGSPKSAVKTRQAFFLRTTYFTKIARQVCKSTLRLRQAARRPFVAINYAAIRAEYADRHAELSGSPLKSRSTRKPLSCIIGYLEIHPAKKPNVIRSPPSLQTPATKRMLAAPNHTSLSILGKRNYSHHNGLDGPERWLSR
# T1: PWWP2A purified from HeLa cells (UniProt Q96N64)
# T1 sequence: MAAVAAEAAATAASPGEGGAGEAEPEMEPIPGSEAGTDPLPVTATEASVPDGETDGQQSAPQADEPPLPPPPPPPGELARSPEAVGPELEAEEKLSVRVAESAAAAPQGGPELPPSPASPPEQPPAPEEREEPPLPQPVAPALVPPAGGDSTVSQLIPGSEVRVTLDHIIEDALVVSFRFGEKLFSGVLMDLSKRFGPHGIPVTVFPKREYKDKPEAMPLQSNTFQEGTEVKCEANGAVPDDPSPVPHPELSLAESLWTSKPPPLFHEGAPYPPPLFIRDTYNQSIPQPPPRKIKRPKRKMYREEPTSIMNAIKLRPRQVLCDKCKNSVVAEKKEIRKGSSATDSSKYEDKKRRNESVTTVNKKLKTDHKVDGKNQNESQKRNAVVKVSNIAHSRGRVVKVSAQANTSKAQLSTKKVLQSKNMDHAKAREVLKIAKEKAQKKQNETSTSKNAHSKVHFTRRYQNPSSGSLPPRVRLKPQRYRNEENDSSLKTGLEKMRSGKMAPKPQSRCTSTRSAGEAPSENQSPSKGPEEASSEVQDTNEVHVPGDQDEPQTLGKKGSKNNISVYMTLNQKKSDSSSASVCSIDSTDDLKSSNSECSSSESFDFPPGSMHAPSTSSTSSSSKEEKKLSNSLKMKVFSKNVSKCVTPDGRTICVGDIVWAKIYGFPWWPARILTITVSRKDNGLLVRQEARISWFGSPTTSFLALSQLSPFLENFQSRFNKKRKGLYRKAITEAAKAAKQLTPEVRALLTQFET
# T2: Flag-2xStrepII (FS2) tagged full-length PWWP2A (UniProt Q96N64)
# T2 sequence: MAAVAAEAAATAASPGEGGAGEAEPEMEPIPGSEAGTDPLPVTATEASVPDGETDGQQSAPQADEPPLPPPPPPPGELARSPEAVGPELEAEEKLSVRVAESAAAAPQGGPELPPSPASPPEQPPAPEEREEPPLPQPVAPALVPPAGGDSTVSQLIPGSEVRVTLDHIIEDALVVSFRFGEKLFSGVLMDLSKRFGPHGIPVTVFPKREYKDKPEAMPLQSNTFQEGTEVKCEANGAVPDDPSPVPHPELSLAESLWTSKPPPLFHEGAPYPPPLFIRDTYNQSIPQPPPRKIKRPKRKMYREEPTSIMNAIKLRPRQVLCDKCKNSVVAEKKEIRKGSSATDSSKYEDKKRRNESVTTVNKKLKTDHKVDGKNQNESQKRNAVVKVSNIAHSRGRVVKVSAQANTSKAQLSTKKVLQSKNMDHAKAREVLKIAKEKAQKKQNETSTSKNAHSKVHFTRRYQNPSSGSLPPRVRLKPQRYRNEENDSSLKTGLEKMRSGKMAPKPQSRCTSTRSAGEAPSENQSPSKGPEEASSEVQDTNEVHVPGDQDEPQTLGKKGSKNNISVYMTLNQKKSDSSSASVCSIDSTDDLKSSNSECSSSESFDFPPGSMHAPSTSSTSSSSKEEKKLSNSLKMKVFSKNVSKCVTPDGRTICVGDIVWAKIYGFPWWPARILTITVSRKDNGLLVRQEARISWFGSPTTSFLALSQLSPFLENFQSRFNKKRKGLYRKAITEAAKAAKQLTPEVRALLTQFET
# Molecular target: T1, PWWP2A purified from HeLa cells
# Assay: affinity purification with mass spectrometry; purification of PWWP2A-associated proteins from HeLa under high salt (500 mM NaCl); mass spectrometry
row,binding,Molecule
1,no binding,"MBD2, endogenous in HeLa (from UniProt Q9UBB5 1-411)"
2,binds,"HDAC2, endogenous in HeLa nuclear extract (from UniProt Q92769 1-488) (enzyme)"
3,no binding,"CHD3, endogenous in HeLa (from UniProt Q12873 1-2000) (enzyme)"
4,no binding,"p66β, endogenous in HeLa (from UniProt Q8WXI9 1-593)"
5,no binding,"CHD4, endogenous in HeLa (from UniProt Q14839 1-1912) (enzyme)"

# Molecular target: T2, Flag-2xStrepII (FS2) tagged full-length PWWP2A
# Assay: affinity purification with mass spectrometry; Streptactin agarose purification of the FS2-tagged bait from 15 mg benzonase-treated mESC nuclear extract; washes 8 x 15 min in 500 mM NaCl, 0.2% NP-40; desthiobiotin elution; LC-MS/MS (Mascot, 1% FDR)
row,Molecule,binding
1,"p66α, endogenous in mESCs (from UniProt Q8CHY6 1-629)",no binding
2,"CHD4, endogenous in mESCs (from UniProt Q6PDQ2 1-1915) (enzyme)",no binding
3,"MTA1, endogenous in mESCs (from UniProt Q8K4B0 1-715)",binds
4,"HDAC2, endogenous in mESCs (from UniProt P70288 1-488) (enzyme)",binds
5,"MBD2, endogenous in mESCs (from UniProt Q9Z2E1 1-414)",no binding
6,"SALL4, endogenous in mESCs (from UniProt Q8BX22 1-1067)",binds
7,"ZFP521, endogenous in mESCs (protein, UniProt Q6KAS7 1-1311) MSRRKQAKPRSLKDPNCKLEDKIEDGEAVDCKKRPEDGEELEEDAVHSCDSCLQVFESLSDITEHKIHQCQLTDGVDVEDDPSCSWPASSPSSKDQTSPSHGEGCDFGEEEGGPGLPYPCQFCDKSFSRLSYLKHHEQSHSDKLPFKCTYCSRLFKHKRSRDRHIKLHTGDKKYHCSECDAAFSRSDHLKIHLKTHTSNKPYKCAVCRRGFLSSSSLHGHMQVHERNKDGSQSGSRMEDWKMKDTQKCSQCEEGFDFPEDLQKHIAECHPECSPNEDRAALQCMYCHELFVEETSLMNHIEQVHGGEKKNSCSICSESFLTVEELYSHMDSHQQPESCNHSNSPSLVTVGYTSVSSTTPDSNLSVDSSTMVEAAPPIPKSRGRKRAAQQTSDMTGPSSKQAKVTYSCIYCNKQLFSSLAVLQIHLKTMHLDKPEQAHICQYCLEVLPSLYNLNEHLKQVHEAQDPGLIVSAMPAIVYQCNFCSEVVNDLNTLQEHIRCSHGFANPAAKDSNAFFCPHCYMGFLTDSSLEEHIRQVHCDLSGSRFGSPVLGTPKEPVVEVYSCSYCTNSPIFNSVLKLNKHIKENHKNIPLALNYIHNGKKSRALSPLSPVAIEQTTLKMMQTVGGGPARASGEYICNQCGAKYTSLDSFQTHLKTHLDTVLPKLTCPQCNKEFPNQESLLKHVTIHFMITSTYYICESCDKQFTSVDDLQKHLLDMHTFVFFRCTLCQEVFDSKVSIQLHLAVKHSNEKKVYRCTSCNWDFRNETDLQLHVKHNHLENQGKVHKCIFCGESFGTEVELQCHITTHSKKYNCRFCSKAFHAVILLEKHLREKHCVFETKTPNCGTNGASEQVQKEEAELQTLLTNSQESHNSHDGSEEDVDSSEPMYGCDICGAAYTMETLLQNHQLRDHNIRPGESAIVKKKAELIKGNYKCNVCSRTFFSENGLREHMQTHLGPVKHYMCPICGERFPSLLTLTEHKVTHSKSLDTGNCRICKMPLQSEEEFLEHCQMHPDLRNSLTGFRCVVCMQTVTSTLELKIHGTFHMQKTGNGSSVQTTGRGQHVQKLYKCASCLKEFRSKQDLVKLDINGLPYGLCAGCVNLSKSSSPGLSLPPGASRPGLGQNESLSAMEGKGKAGGLKTRCSSCNVKFESESELQNHIQTVHRELVPDANSTQLKTPQVSPMPRISPSQSDEKKTYQCIKCQMVFYNEWDIQVHVANHMIDEGLNHECKLCSQTFDSPAKLQCHLIEHSFEGMGGTFKCPVCFTVFVQANKLQQHIFSAHGQEDKIYDCTQCPQKFFFQTELQNHTMTQHSS",binds
8,"ZFP423, endogenous in mESCs (protein, UniProt Q80TS5 1-1292) MSRRKQAKPRSVKVEEGEASDFSLAWDSSVAAAGGLEGEPECDRKTSRALEDRNSVTSQEERNEDDEDVEDESIYTCDHCQQDFESLADLTDHRAHRCPGDGDDDPQLSWVASSPSSKDVASPTQMIGDGCDLGLGEEEGGTGLPYPCQFCDKSFIRLSYLKRHEQIHSDKLPFKCTFCSRLFKHKRSRDRHIKLHTGDKKYHCHECEAAFSRSDHLKIHLKTHSSSKPFKCSVCKRGFSSTSSLQSHMQAHKKNKEHLAKSEKEAKKDDFMCDYCEDTFSQTEELEKHVLTLHPQLSEKADLQCIHCPEVFVDESTLLAHIHQAHANQKHKCPMCPEQFSSVEGVYCHLDSHRQPDSSNHSVSPDPVLGSVASMSSATPDSSASVERGSTPDSTLKPLRGQKKMRDDGQSWPKVVYSCPYCSKRDFTSLAVLEIHLKTIHADKPQQSHTCQICLDSMPTLYNLNEHVRKLHKSHAYPVMQFGNISAFHCNYCPEMFADINSLQEHIRVSHCGPNANPPDGNNAFFCNQCSMGFLTESSLTEHIQQAHCSVGSTKLESPVVQPTQSFMEVYSCPYCTNSPIFGSILKLTKHIKENHKNIPLAHSKKSKAEQSPVSSDVEVSSPKRQRLSGSANSISNGEYPCNQCDLKFSNFESFQTHLKLHLELLLRKQACPQCKEDFDSQESLLQHLTVHYMTTSTHYVCESCDKQFSSVDDLQKHLLDMHTFVLYHCTLCQEVFDSKVSIQVHLAVKHSNEKKMYRCTACNWDFRKEADLQVHVKHSHLGNPAKAHKCIFCGETFSTEVELQCHITTHSKKYNCRFCSKAFHAVILLEKHLREKHCVFDAAAENGTANGVPPTSTKKAEPADLQGMLLKNPEAPNSHEASEDDVDASEPMYGCDICGAAYTMEVLLQNHRLRDHNIRPGEDDGSRKKAEFIKGSHKCNVCSRTFFSENGLREHLQTHRGPAKHYMCPICGERFPSLLTLTEHKVTHSKSLDTGTCRICKMPLQSEEEFIEHCQMHPDLRNSLTGFRCVVCMQTVTSTLELKIHGTFHMQKLAGSSAASSPNGQGLQKLYKCALCLKEFRSKQDLVRLDVNGLPYGLCAGCMARSANGQVGGLAPPEPADRPCAGLRCPECNVKFESAEDLESHMQVDHRDLTPETSGPRKGAQTSPVPRKKTYQCIKCQMTFENEREIQIHVANHMIEEGINHECKLCNQMFDSPAKLLCHLIEHSFEGMGGTFKCPVCFTVFVQANKLQQHIFAVHGQEDKIYDCSQCPQKFFFQTELQNHTMSQHAQ",binds
9,"BEND3, endogenous in mESCs (protein, UniProt Q6PAL0 1-825) MNSTEISEDVEEVLKNNPVKAEGSDATLDCSRNSRASEKHLLESVLTALHDSSKRKQLDSDGQPDSVPSVKRRRLIPEALLAGMRTRENSSPCQGNGEPASRGRSGSCAWPAEEEPSTEATVPSYKKPLYGISHKIMEKKNPPSGDLLSPYELFEKANSSSGPSPLRLLSESQKRECGVGVATDGDLNIYFLIQKMFYMLNGLTTNMSQLHSKMDLLSLEVSRVKKQVSPSELVAKFQPPPEYQLTASELKQIAEQSLSCGDLACRLLLQLFPELFSDVDFSRGCSACGFAAKRKLESLHLQLIRNYVEVYYPNVKDTAVWQAECLPQLNDFFSRFWAQREMEDSQPGGQVTNFFEADQVDAGHFLDNKDQEEALSLDRSSTIASDHVVDTQDLTEFLDEASSPGEFAVFLLHRLFPELFDHRKLGEQYSCYGDGGKQELDPQRLQIIRNYTEIYFPDMQEEEAWLQQCAQRINDELEGLGLEGGSEGEAPRDDCYDSSSLPDDISVVKVEDNFEGERPGRRSKKIWLVPIDFDKLEIPQPDFEMPGSDCLLSKEQLRSIYESSLSIGNFASRLLVHLFPELFTHENLRKQYNCSGSLGKKQLDPARIRLIRHYVQLLYPRAKNDRVWTLEFVGKLDERCRRRDTEQRRSYQQQRKVHVPGPECRDLASYAINPERFREEFEGPPLPPERSSKDFCKIPLDELVVPSPDFPVPSPYLLSDKEVREIVQQSLSVGNFAARLLVRLFPELFTTENLRLQYNHSGACNKKQLDPTRLRLIRHYVEAVYPVEKMEEVWHYECIPSIDERCRRPNRKKCDILKKAKKVEK",binds

# Next, values leading:
row,binding,Molecule
1,no binding,"CHD3, endogenous in mESCs (mouse (endogenous in E14 mESCs)) (enzyme)"
2,no binding,"p66β, endogenous in mESCs (from UniProt Q8VHR5 1-594)"
3,binds,"MTA3, endogenous in mESCs (from UniProt Q924K8 1-591)"

# Results are given in words; binding and its absence hold for the method and conditions named. In cells and extracts the contact can be indirect. These calls come from enrichment with a bait or labelling near it, and not all partners need be listed. A no says only that the protein was not detected with the bait. For some assays here: Tags and fused reporters may be left off the sequences shown.
